Results are given in words; binding and its absence hold for the method and conditions named. For part of these data: Binding can be weak; no strength is given. For part of these data: Tags and fused reporters may be left off the sequences shown. For part of these data: Binding seen in cells or lysates may run through a third protein. Blank lines part the entries; values can stand above or below the molecule they belong to.
Key:
[1] = target: T1, EYFP-Vps23A (Arabidopsis thaliana) (UniProt Q9LHG8); assay: co-IP; Arabidopsis protoplasts transiently co-expressing the tagged proteins; extracts in IP buffer (10 mM Tris-HCl pH 7.4, 150 mM NaCl, 0.5 mM EDTA, 0.2% Nonidet P-40, 5% glycerol, 1 mM DTT) incubated with GFP-Trap agarose beads 4 h at 4 °C; immunoblot
T1 sequence: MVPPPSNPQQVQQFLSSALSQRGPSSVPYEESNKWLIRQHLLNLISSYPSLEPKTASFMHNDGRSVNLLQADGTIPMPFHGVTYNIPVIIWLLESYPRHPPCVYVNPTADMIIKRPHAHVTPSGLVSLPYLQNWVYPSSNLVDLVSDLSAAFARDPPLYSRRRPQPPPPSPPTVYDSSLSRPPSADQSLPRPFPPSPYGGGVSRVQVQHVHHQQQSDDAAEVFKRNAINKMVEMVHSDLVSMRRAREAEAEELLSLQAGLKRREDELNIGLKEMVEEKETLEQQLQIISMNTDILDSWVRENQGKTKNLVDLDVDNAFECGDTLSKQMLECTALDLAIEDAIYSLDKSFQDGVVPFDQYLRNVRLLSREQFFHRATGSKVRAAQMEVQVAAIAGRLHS

[2] = target: T2, Cerulean-Vps23A (Arabidopsis thaliana) (UniProt Q9LHG8); assay: FRET or BRET; acceptor photobleaching FRET (FRET-AB) on colocalized punctae in Arabidopsis protoplasts expressing Cerulean and YFP fusions; Leica SP8, bleaching with the 514 nm laser
T2 sequence: T1 sequence

[3] = target: T3, MBP-Vps23A (Arabidopsis thaliana) (UniProt Q9LHG8); assay: pull-down; amylose resin saturated with MBP or MBP fusion, incubated with 30 pmol His-Sumo protein in 200 µL pull-down buffer (50 mM Tris-HCl, 100 mM NaCl, 10% glycerol, pH 7.5) with 0.2% Triton X-100, 1 h at 4 °C; immunoblot of bead-retained material; both purified
T3 sequence: T1 sequence

[4] = target: T3, MBP-Vps23A (Arabidopsis thaliana); assay: pull-down; competition: in vitro binding assay on amylose resin bound with MBP-Vps23A (or the Vps23A CC domain as bait) with a constant amount of one His-SUMO protein (30 pmol BRAF) and 10, 30, 100 or 300 pmol of the competing His-SUMO protein; immunoblot, quantified; both purified
[5] = target: T4, FREE1, yeast two-hybrid fusion (Arabidopsis thaliana) (UniProt Q9ASS2); assay: two-hybrid; binary assays, pGBKT7 and pGADT7 plasmids cotransformed into yeast AH109; selection on SD-His-Trp-Leu with 0-10 mM 3-amino-1,2,4-triazole, 2 days at 30 °C
T4 sequence: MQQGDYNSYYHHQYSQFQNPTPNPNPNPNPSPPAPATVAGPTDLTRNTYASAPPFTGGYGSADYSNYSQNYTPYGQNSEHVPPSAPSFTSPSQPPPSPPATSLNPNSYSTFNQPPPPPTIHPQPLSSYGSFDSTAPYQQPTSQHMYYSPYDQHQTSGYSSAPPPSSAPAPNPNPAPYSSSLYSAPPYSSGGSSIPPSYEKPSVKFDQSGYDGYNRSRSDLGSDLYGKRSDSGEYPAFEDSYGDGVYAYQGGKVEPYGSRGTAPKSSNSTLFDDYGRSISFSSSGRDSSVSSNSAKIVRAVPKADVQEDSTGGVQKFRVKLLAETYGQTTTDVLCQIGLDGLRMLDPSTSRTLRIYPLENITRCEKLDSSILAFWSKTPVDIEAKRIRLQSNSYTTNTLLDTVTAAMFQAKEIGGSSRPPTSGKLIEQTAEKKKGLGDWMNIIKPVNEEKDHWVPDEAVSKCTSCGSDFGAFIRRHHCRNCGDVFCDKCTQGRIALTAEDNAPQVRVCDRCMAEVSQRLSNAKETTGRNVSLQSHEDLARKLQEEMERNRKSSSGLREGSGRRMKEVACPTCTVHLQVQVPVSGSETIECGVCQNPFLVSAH

[6] = target: BRAF (BRo1-domain protein As FREE1 suppressor), yeast two-hybrid fusion (Arabidopsis thaliana); assay: as above
[7] = target: BRAF-YFP (Arabidopsis thaliana); assay: co-IP; Arabidopsis protoplasts transiently co-expressing the tagged proteins; extracts in IP buffer (10 mM Tris-HCl pH 7.4, 150 mM NaCl, 0.5 mM EDTA, 0.2% Nonidet P-40, 5% glycerol, 1 mM DTT) incubated with GFP-Trap agarose beads 4 h at 4 °C; immunoblot
[8] = target: AT1G17940 (single Bro1-domain protein), yeast two-hybrid fusion (Arabidopsis thaliana); assay: two-hybrid; binary assays, pGBKT7 and pGADT7 plasmids cotransformed into yeast AH109; selection on SD-His-Trp-Leu with 0-10 mM 3-amino-1,2,4-triazole, 2 days at 30 °C
[9] = target: AT1G13310 (single Bro1-domain protein), yeast two-hybrid fusion (Arabidopsis thaliana); assay: as above

binding [1]: binds
Molecule: 3 × HA-BRAF (Arabidopsis thaliana)

binding [1]: binds
Molecule: BRAF-4 × HA (Arabidopsis thaliana)

binding [3]: binds
binding [4]: binds
Molecule: His-Sumo-BRAF (Arabidopsis thaliana)

binding [5]: binds
Molecule: Vps23A with the C-terminal steadiness box (SB) domain deleted, yeast two-hybrid fusion (Arabidopsis thaliana) (domain or fragment)

binding [5]: binds
Molecule: Vps23A with the N-terminal UEV domain deleted, yeast two-hybrid fusion (Arabidopsis thaliana) (domain or fragment)

binding [5]: binds
Molecule: Vps23A with the proline-rich region (PRR) deleted, yeast two-hybrid fusion (Arabidopsis thaliana) (domain or fragment)

binding [7]: binds
B2: Myc-tagged Vps23A (protein, UniProt Q9LHG8 1-398)
chain: T1 sequence

binding [8]: no binding
binding [9]: no binding
B3: Vps23A, yeast two-hybrid fusion (protein, UniProt Q9LHG8 1-398)
chain: T1 sequence

binding [6]: no binding
B4: SNF7B, yeast two-hybrid fusion (protein, UniProt Q9SZE4 1-219)
chain: MMNRLFGKPKQEANALQTLDKLNETLEMLEKKEKVLLKKAGAEVEKAKEYSRAKNKRAAIQCLKRKRLYEGQVEQLGNFQLRIHDQMIMLEGAKATTETVDALRSGASAMKAMQKATNIDDVDKTMDEINEQTENMKQIQEALATPMGAAADFDEDELAAELDELESEELESQLLQPATTAPPLPSVPVPAGRQPARPVPQKRTAEEEELAALQAEMAL

Second part, the molecule before the results:

Molecule: 3 × HA-BRAF(A330V) (Arabidopsis thaliana)
binding [1]: binds

Molecule: BRAF(C3A)-YFP (Arabidopsis thaliana)
binding [2]: binds

Molecule: BRAF-YFP (Arabidopsis thaliana)
binding [2]: binds

Molecule: His-Sumo-BRAF(A330V) (Arabidopsis thaliana)
binding [3]: binds

Molecule: Vps23A CC domain, yeast two-hybrid fusion (Arabidopsis thaliana) (domain or fragment)
binding [5]: binds

B1: AMSH1 (de-ubiquitinating enzyme), yeast two-hybrid fusion (enzyme, UniProt Q8VYB5 1-507)
chain: MGSSFETIDIATSARRIGVDNRISLKFYFRIADNILKQANIFRAEKNVIDLYVMLLRFSSLALETIPSHRDYRTSLKSNKEYLRMRLLDVLTELEKLKPVVQQRIDELYPKLKPRYNVQAHPANGSLGWSSAVKPSFNSYDHAKVRNPPGHNSGYMGSRGQQFLNAAPLEERFRKMSVNFRPNEETLSKHSILGPGGLSAQWQPPKYDTKVQYPSNIDFSPVVIPSFQQLVDSKPMITNGSNDEPEKPIVEPSVASNEKIQKNYTEELSSMISFEEPESVNENNLIRQPSPPPVLAEVQDLVPALCPEVREPECMIENSLPDESLRSESPLELHIATSMMDTFMRLAKSNTKKNLETCGILAGSLKNRKFYITALIIPKQESTSDSCQATNEEEIFEVQDKQSLFPLGWIHTHPTQSCFMSSIDVHTHYSYQIMLPEAVAIVMAPQDSSRNHGIFRLTTPGGMTVIRNCDRRGFHAHSSPEDGGPIYNTCKEVYMNPNLKFDVIDLR
binding [6]: no binding

B5: SNF7A, yeast two-hybrid fusion (protein, UniProt O82197 1-213)
chain: MFMNRLFGKPKQETSTLQTLDKLNETLEMLEKKENVLLKKATGEVEKAKEFSRAKNKRAAIQCLKRKRLYEQQVEQLGNFQLRIHDQMIMLEGAKATTETVDALRTGASAMKAMQKATNIDDVDKTMDEINEQTENMKQIQEALSAPFGANDFDEDELEAELDELEGAELEEQLLQPVPIHVPQGNKPARAPAQKQPTAEEDELAALQAEMAL
binding [6]: no binding

Source: paper PMC6141507, “A plant Bro1 domain protein BRAF regulates multivesicular body biogenesis and membrane protein homeostasis” (Nature Communications, 2018)
